Taken from: PubChem BioAssay AID1159579 (Peter MacCallum Cancer Centre, 2015)

Purpose: 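Retest candidate lymphatic endothelial migration regulators using several independent siRNAs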 (follow-up of hits)
System: human dermal lymphatic endothelial cells
Reagents: single siRNA against human genes, 25 nM
Measured: 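Scratch wound imaging measuring area filled by moving cells plus nuclei number, averaged over two wells and scaled to mock-transfected controls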
Scale: migration relative to mock: higher = more migration into the scratch; mean nuclei count: higher = more cells remaining
Call rule: 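Called active when the migration ratio is 0.6 or lower (impaired) or 1.3 or higher (accelerated), but inactive whenever the mean nuclei count falls under 3300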
Meaning of the calls: active = migration changed (impaired or accelerated); inactive = no migration change, or too few cells
Shown is an unselected part of about 2,000 reagents. In the full data, 549 (27%) were called active. 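Some migration ratios are negative; siRNAs with too few cells are inactive whatever their migration ratio.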 Reagents against one gene are numbered here. Not given: the time to read-out.

Target gene | siRNA no. | migration relative to mock | migration and cell number class | mean nuclei count | call
SYCP1 (GeneID 6847) | 1 | 0.83 | no change in migration or cell number | 5625 | inactive
SYCP1 (GeneID 6847) | 2 | 0.85 | no change in migration or cell number | 5484 | inactive
SYCP1 (GeneID 6847) | 3 | 0.81 | no change in migration or cell number | 5782 | inactive
SYCP1 (GeneID 6847) | 4 | 0.74 | no change in migration or cell number | 5344 | inactive
ATXN1 (GeneID 6310) | 1 | 0.97 | no change in migration or cell number | 6512 | inactive
ATXN1 (GeneID 6310) | 2 | 0.82 | no change in migration or cell number | 4497 | inactive
ATXN1 (GeneID 6310) | 3 | 0.62 | no change in migration or cell number | 3608 | inactive
ATXN1 (GeneID 6310) | 4 | 0.9 | no change in migration or cell number | 5004 | inactive
RTL8C (GeneID 8933) | 1 | 0.56 | migration reduced | 5426 | active
RTL8C (GeneID 8933) | 2 | 0.77 | no change in migration or cell number | 5617 | inactive
RTL8C (GeneID 8933) | 3 | 0.94 | no change in migration or cell number | 5306 | inactive
RTL8C (GeneID 8933) | 4 | 0.6 | migration reduced | 5130 | active

Called active (from the list above):
Target gene | siRNA no. | migration relative to mock | migration and cell number class | mean nuclei count | call
RTL8C (GeneID 8933) | 1 | 0.56 | migration reduced | 5426 | active
RTL8C (GeneID 8933) | 4 | 0.6 | migration reduced | 5130 | active

Further records follow:
Target gene | siRNA no. | migration relative to mock | migration and cell number class | mean nuclei count | call
GCGR (GeneID 2642) | 1 | 0.37 | migration reduced | 4555 | active
GCGR (GeneID 2642) | 2 | 0.05 | migration reduced | 3918 | active
GCGR (GeneID 2642) | 3 | 0.03 | migration reduced | 5178 | active
GCGR (GeneID 2642) | 4 | 0.8 | no change in migration or cell number | 6365 | inactive
L1CAM-AS1 (GeneID 100996465) | 1 | 0.32 | migration reduced | 3907 | active
L1CAM-AS1 (GeneID 100996465) | 2 | 0.51 | migration reduced | 3312 | active
L1CAM-AS1 (GeneID 100996465) | 3 | 0.86 | no change in migration or cell number | 4628 | inactive
L1CAM-AS1 (GeneID 100996465) | 4 | 0.69 | no change in migration or cell number | 6102 | inactive
CRYM (GeneID 1428) | 1 | 0.7 | no change in migration or cell number | 4458 | inactive
CRYM (GeneID 1428) | 2 | 0.71 | no change in migration or cell number | 4192 | inactive
CRYM (GeneID 1428) | 3 | 0.56 | migration reduced | 5318 | active
CRYM (GeneID 1428) | 4 | 0.69 | no change in migration or cell number | 5064 | inactive
VAV3 (GeneID 10451) | 1 | 0.74 | no change in migration or cell number | 6780 | inactive
VAV3 (GeneID 10451) | 2 | 0.99 | no change in migration or cell number | 6532 | inactive
VAV3 (GeneID 10451) | 3 | 0.78 | no change in migration or cell number | 6674 | inactive
VAV3 (GeneID 10451) | 4 | 1.02 | no change in migration or cell number | 6630 | inactive
